# From paper PMC9964616
# Sequences of proteins named here, by UniProt entry; tags and fusion partners are left off. Residues count along the entry.
# UniProt P35968, residues 20-1356: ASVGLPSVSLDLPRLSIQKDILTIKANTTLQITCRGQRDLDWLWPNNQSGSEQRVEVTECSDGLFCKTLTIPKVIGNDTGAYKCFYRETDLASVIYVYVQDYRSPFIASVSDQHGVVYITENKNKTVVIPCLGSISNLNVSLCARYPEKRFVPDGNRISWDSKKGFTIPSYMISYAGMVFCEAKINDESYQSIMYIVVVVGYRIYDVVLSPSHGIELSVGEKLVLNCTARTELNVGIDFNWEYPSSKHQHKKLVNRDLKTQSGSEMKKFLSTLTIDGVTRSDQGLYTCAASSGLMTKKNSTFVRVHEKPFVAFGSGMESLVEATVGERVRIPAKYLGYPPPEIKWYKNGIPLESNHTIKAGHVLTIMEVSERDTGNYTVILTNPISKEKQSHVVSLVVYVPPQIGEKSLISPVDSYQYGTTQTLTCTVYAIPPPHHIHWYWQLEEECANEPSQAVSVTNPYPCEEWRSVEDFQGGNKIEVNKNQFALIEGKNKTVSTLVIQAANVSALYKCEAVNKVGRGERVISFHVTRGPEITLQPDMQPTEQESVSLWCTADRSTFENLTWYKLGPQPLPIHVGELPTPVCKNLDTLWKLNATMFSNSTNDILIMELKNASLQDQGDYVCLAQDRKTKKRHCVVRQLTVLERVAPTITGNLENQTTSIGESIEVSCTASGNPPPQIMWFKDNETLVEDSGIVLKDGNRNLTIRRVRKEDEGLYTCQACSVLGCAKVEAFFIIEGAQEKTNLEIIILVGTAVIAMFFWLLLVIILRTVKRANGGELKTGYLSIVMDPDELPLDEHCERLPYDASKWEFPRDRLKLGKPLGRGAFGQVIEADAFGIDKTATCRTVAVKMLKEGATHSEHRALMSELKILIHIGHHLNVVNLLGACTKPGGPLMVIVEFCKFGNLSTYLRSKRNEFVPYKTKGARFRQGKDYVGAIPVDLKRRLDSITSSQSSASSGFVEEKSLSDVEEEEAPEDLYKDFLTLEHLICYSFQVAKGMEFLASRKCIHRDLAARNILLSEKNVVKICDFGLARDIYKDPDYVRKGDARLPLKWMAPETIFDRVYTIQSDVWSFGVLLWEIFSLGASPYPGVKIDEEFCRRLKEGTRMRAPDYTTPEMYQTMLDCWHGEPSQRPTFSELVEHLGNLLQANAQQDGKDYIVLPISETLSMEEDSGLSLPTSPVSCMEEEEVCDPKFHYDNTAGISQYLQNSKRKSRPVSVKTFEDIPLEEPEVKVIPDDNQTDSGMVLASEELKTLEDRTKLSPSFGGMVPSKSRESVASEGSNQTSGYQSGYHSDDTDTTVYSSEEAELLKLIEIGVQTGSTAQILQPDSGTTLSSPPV
# UniProt O14786, residues 22-923: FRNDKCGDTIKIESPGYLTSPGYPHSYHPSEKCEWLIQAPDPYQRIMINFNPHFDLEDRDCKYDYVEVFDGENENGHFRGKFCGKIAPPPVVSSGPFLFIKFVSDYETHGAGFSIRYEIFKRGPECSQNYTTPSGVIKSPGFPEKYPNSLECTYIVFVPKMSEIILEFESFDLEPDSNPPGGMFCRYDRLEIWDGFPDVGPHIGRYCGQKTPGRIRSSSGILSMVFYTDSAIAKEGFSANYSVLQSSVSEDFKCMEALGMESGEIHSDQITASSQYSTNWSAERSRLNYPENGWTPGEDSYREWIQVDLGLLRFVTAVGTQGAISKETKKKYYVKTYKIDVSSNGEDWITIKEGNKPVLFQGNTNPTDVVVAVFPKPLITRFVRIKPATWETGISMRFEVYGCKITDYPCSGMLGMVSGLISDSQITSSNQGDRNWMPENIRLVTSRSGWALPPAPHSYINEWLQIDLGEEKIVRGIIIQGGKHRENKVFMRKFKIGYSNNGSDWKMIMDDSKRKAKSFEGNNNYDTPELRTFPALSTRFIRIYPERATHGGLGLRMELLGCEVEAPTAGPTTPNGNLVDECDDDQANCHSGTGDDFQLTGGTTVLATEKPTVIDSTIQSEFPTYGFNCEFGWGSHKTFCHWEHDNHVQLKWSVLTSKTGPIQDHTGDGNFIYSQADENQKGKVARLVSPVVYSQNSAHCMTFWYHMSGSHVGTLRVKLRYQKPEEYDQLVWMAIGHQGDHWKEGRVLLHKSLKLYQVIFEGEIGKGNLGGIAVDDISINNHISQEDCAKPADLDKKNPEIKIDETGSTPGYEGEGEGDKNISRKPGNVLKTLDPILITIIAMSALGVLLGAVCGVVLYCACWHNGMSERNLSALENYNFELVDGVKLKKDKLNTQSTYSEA
# No constants are given. Whether binding was seen depends on the method and setting. Binding seen in cells or lysates may run through a third protein. Some results given as binding are weak or reduced against the parent protein; the word gives no strength.
# Target: T1, Vascular endothelial cadherin (human (endogenous in HUVEC)) (UniProt P33151)
# T1 sequence: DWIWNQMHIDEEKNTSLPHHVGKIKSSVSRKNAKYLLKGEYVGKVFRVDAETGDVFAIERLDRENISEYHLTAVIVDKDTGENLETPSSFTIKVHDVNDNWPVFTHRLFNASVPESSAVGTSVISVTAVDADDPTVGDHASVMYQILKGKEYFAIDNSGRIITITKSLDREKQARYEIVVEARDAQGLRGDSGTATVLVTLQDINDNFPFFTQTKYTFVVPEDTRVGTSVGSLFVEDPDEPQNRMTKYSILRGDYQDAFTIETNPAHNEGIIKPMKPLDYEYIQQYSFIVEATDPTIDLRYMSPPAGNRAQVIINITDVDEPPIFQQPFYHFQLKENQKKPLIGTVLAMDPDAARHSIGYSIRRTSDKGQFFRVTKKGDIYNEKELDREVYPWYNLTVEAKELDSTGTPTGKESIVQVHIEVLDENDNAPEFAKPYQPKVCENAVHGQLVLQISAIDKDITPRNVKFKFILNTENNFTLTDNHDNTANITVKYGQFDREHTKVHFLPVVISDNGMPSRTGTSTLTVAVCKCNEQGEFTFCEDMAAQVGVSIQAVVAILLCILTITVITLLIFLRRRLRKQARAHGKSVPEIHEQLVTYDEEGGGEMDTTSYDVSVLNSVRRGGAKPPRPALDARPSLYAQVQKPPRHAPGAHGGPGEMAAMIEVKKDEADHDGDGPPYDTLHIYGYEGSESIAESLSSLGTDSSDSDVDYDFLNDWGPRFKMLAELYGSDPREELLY
# Assay: co-IP; HUVEC total protein in RIPA buffer, precleared with anti-species-specific IgG beads; incubated with antibodies to NRP1, VE-Cad and VEGFR2 for 1 h at 4 °C, then protein A/G agarose beads overnight at 4 °C; Western blotting
substance,measurement,value
VEGFR2 (from UniProt P35968 20-1356) (receptor),binding,binds
Neuropilin 1 (from UniProt O14786 22-923) (receptor),binding,binds
